# Earlier results as cited in patent US5506211A, “Genistein for use in inhibiting osteroclasts” (The UAB Research Foundation, priority 1994, dated 1996).
# Like-named read-outs stand apart in the source and are kept apart here. At least one read-out could not be matched to a standard name with certainty.
# Details: cited from earlier work
structure (smiles),measurement,setting,value
"O=c1c(-c2ccc(O)cc2)coc2cc(O)cc(O)c12 [genistein, 5,7,4'-trihydroxyisoflavone]",concentration,"individuals on a high soy containing diet, read-out: genistein plasma levels",1000 to 4000 nM
same,concentration,"some vegetarian women, read-out: plasma total genistein concentration",≤ 100 nM
